At least one read-out could not be matched to a standard name with certainty.
System: mouse bone marrow cells
Test: Inhibition of the colony formation of mouse bone marrow cells
Assay type: cell-based
Conditions: 1.0 μg/ml, relative to control = 100

CCC1OC(=O)CC(O)C(C)C(OC2OC(C)C(OC3CC(C)(O)C(OC(=O)C(O)c4ccc(OC)cc4)C(C)O3)C(N(C)C)C2O)C(CC=O)CC(C)C(=O)C=CC(C)=CC1COC1OC(C)C(O)C(OC)C1OC [Compound B, 4"-O-[(R)-(-)-p-methoxymandeloyl]tylosin]
Colony formation (%): 39.2%

Reference: patent EP0482594A1, “Tylosin derivative and method for preparing the same” (MERCIAN CORPORATION, priority 1990, dated 1992)
